Results deposited as PubChem BioAssay AID1508597 (Cure First, 2020)
Purpose: 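Survival screen with siRNA in ovarian cancer cells derived from patients, with or without rucaparib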 (primary screen). Cells: human ovarian carcinoma lines grown from tumours: OCI-P5x (papillary serous) and OCI-C5x (clear cell). Reagent: siRNA pool against human genes, 1.25 pmol siRNA per well. Duration: 72 h or 96 h, depending on the cell culture. Challenge: rucaparib 20 µM (about IC30) or vehicle, present until read-out. Rucaparib or vehicle: Rucaparib. Cell line: OCI-P5x (serous). Read-out: 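Luminescent ATP-based viability assay read 72 or 96 h after transfection, depending on culture, given as normalised percent viability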. Scale: viability, normalised: higher = more viable cells remaining. Hit rule: 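a well counts as a hit if its normalised viability is under 80 percent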. Meaning of the calls: active = viability under 80%; inactive = viability 80% or more.
Shown is an unselected part of the about 2,100 reagents, in one setting of the screen. 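Calls flag viability under 80% in either arm, not effects specific to rucaparib; the reference for percent is not stated.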 Unmarked entries are inactive. Some reagents were tested in more than one well and are listed for each. Not stated in the record: the 100% reference.

no.	Target gene	technical replicate	viability, normalised (%)
1	MED16 (mediator complex subunit 16)	1	38.5 (active)
2	MED16 (mediator complex subunit 16)	2	43.1 (active)
3	MED16 (mediator complex subunit 16)	3	37.3 (active)
4	TRIO (trio Rho guanine nucleotide exchange factor)	1	94.7
5	TRIO (trio Rho guanine nucleotide exchange factor)	2	118
6	TRIO (trio Rho guanine nucleotide exchange factor)	3	108
7	TPD52 (tumor protein D52)	1	62 (active)
8	TPD52 (tumor protein D52)	2	63.8 (active)
9	TPD52 (tumor protein D52)	3	51.1 (active)
10	NOTCH3 (notch receptor 3)	1	76.6 (active)
11	NOTCH3 (notch receptor 3)	2	79.9 (active)
12	NOTCH3 (notch receptor 3)	3	74.8 (active)
13	INO80C (INO80 complex subunit C)	1	56 (active)
14	INO80C (INO80 complex subunit C)	2	54.6 (active)
15	INO80C (INO80 complex subunit C)	3	66.3 (active)
16	ERBB4 (erb-b2 receptor tyrosine kinase 4)	1	60.4 (active)
17	ERBB4 (erb-b2 receptor tyrosine kinase 4)	2	68.1 (active)
18	ERBB4 (erb-b2 receptor tyrosine kinase 4)	3	64.4 (active)
19	GRK1 (G protein-coupled receptor kinase 1)	1	73.3 (active)
20	GRK1 (G protein-coupled receptor kinase 1)	1	77.7 (active)
21	GRK1 (G protein-coupled receptor kinase 1)	1	90.7
22	GRK1 (G protein-coupled receptor kinase 1)	2	77.7 (active)
23	GRK1 (G protein-coupled receptor kinase 1)	2	75.4 (active)
24	GRK1 (G protein-coupled receptor kinase 1)	2	80.6
25	GRK1 (G protein-coupled receptor kinase 1)	3	80.8
26	GRK1 (G protein-coupled receptor kinase 1)	3	86.1
27	GRK1 (G protein-coupled receptor kinase 1)	3	82.6
28	FAAP24 (FA core complex associated protein 24)	1	77.6 (active)
29	FAAP24 (FA core complex associated protein 24)	2	77 (active)
30	FAAP24 (FA core complex associated protein 24)	3	71.9 (active)
31	TRPM6	1	103
32	TRPM6	2	117
33	TRPM6	3	89.1
34	MAD2L1 (mitotic arrest deficient 2 like 1)	1	104
35	MAD2L1 (mitotic arrest deficient 2 like 1)	2	96.2
36	MAD2L1 (mitotic arrest deficient 2 like 1)	3	65.1 (active)
37	FOXA3 (forkhead box A3)	1	52.2 (active)
38	FOXA3 (forkhead box A3)	2	65.3 (active)
39	FOXA3 (forkhead box A3)	3	53.7 (active)
